Assay results as given in patent US20150202315A1.
No constants are given. Whether binding was seen depends on the method and setting. Some binding calls cover weakened binding; strength is not graded here.

Protein sequences, listed by entry. Tags and fused reporters are not part of them. Residues count along the entry.
UniProt P06733, residues 2-434: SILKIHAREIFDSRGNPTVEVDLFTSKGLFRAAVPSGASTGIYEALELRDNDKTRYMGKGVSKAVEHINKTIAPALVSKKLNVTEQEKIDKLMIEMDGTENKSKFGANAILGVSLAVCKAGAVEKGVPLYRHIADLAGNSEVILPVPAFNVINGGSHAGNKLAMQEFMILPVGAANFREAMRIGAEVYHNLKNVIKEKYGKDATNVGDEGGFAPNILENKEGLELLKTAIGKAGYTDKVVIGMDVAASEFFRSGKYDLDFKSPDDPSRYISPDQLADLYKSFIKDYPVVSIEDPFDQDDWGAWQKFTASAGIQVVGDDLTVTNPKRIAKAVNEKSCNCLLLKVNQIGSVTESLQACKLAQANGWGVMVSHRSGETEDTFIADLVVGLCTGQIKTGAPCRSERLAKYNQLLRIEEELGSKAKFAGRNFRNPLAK

Columns and labels:
[1] = biological target: alpha-enolase (ENO1) on the plasma membrane of HCT116 cells (human) (UniProt P06733); assay: affinity cross-linking (DTSSP) on intact HCT116 cells, streptavidin pull-down, SDS-PAGE, LC/MS/MS
[2] = biological target: alpha-enolase (ENO1) on the plasma membrane of HCT116 cells (human) (UniProt P06733); assay: summary of the affinity cross-linking and LC/MS/MS identification

Binder: SSMDIVLRAPLMGGG (C-terminal biotin) [biotinylated pHCT74 peptide]
- binding [1]: binds
- binding [2]: binds
